The results in this text go back to article PMC3688836.

Protein sequences, listed by entry. Tags and fused reporters are not part of them. Residues count along the entry.
UniProt P31751: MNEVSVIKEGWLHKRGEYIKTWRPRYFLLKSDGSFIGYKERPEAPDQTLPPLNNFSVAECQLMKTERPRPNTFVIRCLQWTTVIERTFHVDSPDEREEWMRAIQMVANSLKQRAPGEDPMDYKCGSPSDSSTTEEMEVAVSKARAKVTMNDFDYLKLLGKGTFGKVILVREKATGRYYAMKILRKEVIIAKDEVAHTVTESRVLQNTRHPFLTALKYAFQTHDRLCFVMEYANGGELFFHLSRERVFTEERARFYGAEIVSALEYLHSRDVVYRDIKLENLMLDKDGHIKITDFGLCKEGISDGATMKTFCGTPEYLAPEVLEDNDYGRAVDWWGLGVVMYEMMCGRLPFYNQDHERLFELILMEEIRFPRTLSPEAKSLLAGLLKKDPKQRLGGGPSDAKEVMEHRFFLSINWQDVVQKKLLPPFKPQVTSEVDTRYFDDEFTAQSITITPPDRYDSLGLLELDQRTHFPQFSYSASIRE
UniProt P10809, residues 27-573: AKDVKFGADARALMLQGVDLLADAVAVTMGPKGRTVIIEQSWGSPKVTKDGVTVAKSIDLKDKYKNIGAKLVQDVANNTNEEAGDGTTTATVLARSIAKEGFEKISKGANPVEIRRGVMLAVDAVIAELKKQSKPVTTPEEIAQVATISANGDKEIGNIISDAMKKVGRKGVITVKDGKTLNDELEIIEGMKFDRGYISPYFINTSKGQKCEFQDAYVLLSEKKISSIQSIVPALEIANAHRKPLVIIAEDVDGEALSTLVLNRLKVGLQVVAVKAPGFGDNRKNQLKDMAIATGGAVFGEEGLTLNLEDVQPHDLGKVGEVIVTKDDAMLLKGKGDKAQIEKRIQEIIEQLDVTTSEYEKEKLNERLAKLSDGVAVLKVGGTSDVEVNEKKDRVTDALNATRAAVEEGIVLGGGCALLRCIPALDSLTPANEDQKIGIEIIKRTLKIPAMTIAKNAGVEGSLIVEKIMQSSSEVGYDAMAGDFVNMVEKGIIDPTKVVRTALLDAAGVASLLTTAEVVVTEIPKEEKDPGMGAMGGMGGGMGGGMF
UniProt P38646, residues 47-679: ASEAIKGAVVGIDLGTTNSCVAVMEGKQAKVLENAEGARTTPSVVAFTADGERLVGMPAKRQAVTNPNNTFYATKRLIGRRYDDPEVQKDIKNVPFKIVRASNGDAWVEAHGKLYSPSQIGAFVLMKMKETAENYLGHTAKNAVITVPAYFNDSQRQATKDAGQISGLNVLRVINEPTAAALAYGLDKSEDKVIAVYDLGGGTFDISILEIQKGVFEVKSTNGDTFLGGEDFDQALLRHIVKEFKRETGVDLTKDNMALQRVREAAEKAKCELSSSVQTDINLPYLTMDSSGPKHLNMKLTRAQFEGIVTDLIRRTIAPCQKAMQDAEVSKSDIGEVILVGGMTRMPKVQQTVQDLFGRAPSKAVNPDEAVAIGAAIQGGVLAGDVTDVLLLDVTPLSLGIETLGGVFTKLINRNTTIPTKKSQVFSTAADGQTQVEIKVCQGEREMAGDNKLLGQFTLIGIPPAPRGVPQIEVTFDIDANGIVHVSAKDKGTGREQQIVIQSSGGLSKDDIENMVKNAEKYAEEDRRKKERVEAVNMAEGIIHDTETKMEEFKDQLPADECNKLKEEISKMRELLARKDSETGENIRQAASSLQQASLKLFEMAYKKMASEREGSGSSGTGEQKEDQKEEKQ
UniProt Q9BQA1: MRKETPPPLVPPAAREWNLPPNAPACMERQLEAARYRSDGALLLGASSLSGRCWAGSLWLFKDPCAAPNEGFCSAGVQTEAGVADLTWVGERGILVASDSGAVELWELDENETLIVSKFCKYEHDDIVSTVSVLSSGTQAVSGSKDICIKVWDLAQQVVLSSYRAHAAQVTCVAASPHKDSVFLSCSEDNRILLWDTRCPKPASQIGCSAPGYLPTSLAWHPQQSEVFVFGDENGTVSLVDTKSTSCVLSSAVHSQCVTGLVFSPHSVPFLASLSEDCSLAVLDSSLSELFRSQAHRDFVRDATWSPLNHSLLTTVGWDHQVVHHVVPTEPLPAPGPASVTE
UniProt P11021, residues 19-654: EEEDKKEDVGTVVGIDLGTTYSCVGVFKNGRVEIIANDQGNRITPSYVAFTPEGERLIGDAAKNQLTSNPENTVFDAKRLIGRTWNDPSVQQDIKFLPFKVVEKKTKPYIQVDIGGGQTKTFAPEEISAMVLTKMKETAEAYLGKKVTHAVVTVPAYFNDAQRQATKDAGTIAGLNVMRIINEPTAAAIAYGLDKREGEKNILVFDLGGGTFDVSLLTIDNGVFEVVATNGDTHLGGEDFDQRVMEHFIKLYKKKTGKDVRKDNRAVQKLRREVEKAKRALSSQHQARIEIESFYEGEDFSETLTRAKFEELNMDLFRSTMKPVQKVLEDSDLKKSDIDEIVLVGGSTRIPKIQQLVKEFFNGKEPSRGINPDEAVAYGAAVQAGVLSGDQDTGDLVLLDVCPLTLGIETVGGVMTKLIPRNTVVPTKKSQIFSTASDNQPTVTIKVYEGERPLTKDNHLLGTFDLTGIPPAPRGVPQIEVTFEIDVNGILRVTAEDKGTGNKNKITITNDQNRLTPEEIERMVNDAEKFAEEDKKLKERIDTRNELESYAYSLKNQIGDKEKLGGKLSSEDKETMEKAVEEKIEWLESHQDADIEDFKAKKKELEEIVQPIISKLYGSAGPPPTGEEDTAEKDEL
UniProt P04406: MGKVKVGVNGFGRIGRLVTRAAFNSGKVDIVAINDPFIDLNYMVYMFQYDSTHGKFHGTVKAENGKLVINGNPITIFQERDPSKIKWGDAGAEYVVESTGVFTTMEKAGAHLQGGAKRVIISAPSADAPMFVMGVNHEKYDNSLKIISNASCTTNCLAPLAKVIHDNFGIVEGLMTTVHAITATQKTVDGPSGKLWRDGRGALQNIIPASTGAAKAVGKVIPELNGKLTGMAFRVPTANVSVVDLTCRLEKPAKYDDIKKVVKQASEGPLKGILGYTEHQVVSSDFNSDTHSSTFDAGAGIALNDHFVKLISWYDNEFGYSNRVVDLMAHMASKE
UniProt P0DMV8: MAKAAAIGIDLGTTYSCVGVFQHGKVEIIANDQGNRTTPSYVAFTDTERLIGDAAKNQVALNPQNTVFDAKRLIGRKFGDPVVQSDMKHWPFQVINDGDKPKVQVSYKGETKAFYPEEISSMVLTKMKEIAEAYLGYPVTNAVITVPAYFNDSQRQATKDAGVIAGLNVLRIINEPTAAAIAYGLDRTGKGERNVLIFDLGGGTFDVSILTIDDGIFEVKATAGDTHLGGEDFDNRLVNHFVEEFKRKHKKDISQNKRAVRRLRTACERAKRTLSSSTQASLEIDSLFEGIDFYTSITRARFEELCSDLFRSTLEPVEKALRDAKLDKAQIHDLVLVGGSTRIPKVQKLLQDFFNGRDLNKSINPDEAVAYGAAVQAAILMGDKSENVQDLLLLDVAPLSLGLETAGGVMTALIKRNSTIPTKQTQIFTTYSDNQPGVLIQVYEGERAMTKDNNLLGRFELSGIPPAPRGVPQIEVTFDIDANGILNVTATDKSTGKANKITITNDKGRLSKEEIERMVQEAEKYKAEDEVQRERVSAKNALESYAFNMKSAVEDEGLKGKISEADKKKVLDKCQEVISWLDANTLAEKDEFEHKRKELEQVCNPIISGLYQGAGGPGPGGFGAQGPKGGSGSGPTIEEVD
UniProt P11142: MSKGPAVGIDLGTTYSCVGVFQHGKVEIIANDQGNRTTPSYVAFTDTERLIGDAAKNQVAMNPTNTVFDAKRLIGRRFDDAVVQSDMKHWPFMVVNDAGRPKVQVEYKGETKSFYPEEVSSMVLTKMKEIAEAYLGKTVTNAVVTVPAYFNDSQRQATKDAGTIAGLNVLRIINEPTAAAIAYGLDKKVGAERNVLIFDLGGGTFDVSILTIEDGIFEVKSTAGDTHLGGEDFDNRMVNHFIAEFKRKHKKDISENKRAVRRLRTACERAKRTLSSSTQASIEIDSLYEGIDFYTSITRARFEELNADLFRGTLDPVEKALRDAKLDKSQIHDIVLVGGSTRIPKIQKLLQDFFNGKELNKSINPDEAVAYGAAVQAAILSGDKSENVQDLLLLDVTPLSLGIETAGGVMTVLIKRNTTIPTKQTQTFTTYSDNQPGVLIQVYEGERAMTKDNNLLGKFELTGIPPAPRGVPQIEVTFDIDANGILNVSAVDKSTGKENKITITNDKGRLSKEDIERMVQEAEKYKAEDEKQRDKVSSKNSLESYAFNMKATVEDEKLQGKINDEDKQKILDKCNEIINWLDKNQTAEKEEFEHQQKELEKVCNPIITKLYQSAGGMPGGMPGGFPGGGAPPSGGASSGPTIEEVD
UniProt Q58FF8: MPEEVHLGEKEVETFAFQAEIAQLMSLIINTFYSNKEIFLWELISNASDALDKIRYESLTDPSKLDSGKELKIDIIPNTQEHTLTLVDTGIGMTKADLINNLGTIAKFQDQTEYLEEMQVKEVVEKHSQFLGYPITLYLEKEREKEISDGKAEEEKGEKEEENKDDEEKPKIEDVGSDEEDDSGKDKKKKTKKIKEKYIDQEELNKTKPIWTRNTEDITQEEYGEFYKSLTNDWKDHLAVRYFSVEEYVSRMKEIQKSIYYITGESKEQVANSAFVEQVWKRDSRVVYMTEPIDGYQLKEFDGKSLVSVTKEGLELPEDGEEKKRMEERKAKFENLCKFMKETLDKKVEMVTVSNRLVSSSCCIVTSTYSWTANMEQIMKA
UniProt P54652: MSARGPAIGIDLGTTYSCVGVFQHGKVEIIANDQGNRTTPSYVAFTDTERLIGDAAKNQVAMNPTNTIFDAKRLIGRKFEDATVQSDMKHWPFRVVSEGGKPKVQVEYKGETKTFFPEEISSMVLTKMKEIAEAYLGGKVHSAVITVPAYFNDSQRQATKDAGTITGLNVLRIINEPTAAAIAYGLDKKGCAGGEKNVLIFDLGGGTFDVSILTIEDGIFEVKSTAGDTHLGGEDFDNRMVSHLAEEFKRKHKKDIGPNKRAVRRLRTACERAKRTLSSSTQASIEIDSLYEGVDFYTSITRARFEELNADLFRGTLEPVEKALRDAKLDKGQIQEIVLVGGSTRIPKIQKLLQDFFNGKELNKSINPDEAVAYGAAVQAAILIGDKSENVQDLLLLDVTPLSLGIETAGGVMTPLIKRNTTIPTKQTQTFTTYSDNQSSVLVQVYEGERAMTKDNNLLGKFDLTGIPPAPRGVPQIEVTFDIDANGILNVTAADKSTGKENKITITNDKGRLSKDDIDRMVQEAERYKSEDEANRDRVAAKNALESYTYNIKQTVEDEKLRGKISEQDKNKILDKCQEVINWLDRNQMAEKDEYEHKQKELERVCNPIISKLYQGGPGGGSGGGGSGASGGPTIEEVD
UniProt P06733: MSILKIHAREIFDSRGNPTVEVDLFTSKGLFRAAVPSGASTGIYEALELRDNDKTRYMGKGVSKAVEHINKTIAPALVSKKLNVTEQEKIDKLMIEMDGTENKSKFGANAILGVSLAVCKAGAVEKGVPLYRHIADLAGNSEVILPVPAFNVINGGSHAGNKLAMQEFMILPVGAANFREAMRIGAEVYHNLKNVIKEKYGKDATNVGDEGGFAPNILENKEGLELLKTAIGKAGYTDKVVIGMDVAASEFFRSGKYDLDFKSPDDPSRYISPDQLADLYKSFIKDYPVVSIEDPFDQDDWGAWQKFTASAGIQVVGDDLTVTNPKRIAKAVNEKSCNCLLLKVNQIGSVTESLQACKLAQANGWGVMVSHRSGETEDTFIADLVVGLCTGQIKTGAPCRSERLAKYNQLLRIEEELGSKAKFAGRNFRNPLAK
UniProt Q58FF7: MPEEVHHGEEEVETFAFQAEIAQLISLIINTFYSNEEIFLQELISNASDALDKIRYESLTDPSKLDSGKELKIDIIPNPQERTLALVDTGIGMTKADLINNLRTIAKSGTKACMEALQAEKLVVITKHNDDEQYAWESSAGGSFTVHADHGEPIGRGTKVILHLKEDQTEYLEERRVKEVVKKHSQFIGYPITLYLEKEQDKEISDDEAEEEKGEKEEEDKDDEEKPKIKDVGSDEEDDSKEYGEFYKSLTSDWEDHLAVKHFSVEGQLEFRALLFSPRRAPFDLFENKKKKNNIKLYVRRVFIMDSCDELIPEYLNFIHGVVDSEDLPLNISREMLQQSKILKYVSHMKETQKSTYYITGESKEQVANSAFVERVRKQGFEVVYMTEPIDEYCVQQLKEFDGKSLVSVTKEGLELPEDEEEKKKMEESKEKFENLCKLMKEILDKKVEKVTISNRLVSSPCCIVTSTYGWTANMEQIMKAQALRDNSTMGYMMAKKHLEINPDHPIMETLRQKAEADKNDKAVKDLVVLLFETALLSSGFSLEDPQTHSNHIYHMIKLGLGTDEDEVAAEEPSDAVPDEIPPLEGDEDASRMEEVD

These are yes or no findings as the source states them, for the method shown. Binding seen in cells or lysates may run through a third protein. These calls come from enrichment with a bait or labelling near it, and not all partners need be listed. For some assays here: No binding means not detected with the bait.

Assay [1] deals with AKT2-NTag (AKT2 N-terminally fused with a TAP-Tag consisting of HA-Tag, StrepII-Tag and FLAG-Tag) (UniProt P31751). The assay can be described thus: affinity purification with mass spectrometry; SILAC-TAP: heavy (13C6 Lys/Arg) AKT2-NTag HEK293T cells and light wild type cells, lysates mixed 1:1 before (MBP) or eluates after (MAP) tandem affinity purification; in-solution digest, 2-D LC-MS/MS; two MAP and two MBP.

Assay [2] shares this target. Kind of assay: affinity purification with mass spectrometry; tandem affinity purification (anti-FLAG M2 gel, triple-FLAG peptide elution, then Strep-Tactin Sepharose, biotin elution) from lysates of HEK293T cells stably expressing AKT2-NTag; SDS-PAGE, silver staining, in-gel digest, nano-LC-MS/MS; six independent TAPs; wild type cells as control.
The target is the same in assay [3]. Described as above. This is another data set of the same source.

Regarding “60 kDa heat shock protein, mitochondrial (from UniProt P10809 27-573)”, the binding result in assay [1] is “binds”.

In the case of “Stress 70 protein, mitochondrial (from UniProt P38646 47-679)”, the binding result in assay [1] is recorded as “binds”.

Regarding “methylosome protein 50 (from UniProt Q9BQA1 1-342)”, the binding entry in assay [1] is on record as “no binding”.

Turning to “78 kDa glucose regulated protein (from UniProt P11021 19-654)”, the binding result in assay [2] is “binds”; in assay [1] it was “binds weakly”.

With “Glyceraldehyde-3-phosphate-dehydrogenase (from UniProt P04406 1-335)”, the binding result in assay [2] is given as “binds”.

For “Heat shock 70 kDa protein 1 (from UniProt P0DMV8 1-641)”, the binding entry in assay [1] is listed as “binds”.

Regarding “Heat shock cognate 71 kDa protein (from UniProt P11142 1-646)”, in assay [1], the binding result is listed as “binds”.

“Heat shock protein HSP 90-alpha (from UniProt P07900 1-732)”: in assay [1], the binding entry is listed as “binds”.

As for “Putative heat shock protein HSP 90-beta 2 (from UniProt Q58FF8 1-381)”, the binding entry in assay [1] is “binds”.

As for “Heat shock-related 70 kDa protein 2 (from UniProt P54652 1-639)”, the binding result in assay [1] is recorded as “binds”.

With α-enolase (from UniProt P06733 1-434), the binding result in assay [2] is on record as “binds”.

As for “Endoplasmin (from UniProt P14625 22-803)”, in assay [2], the binding entry is recorded as “binds”.

In the case of “Putative heat shock protein HSP 90-beta-3 (from UniProt Q58FF7 1-597)”, the binding result in assay [1] is “binds”.

“Heat shock 70 kDa protein 1L (from UniProt P34931 1-641)”: in assay [1], the binding result was “binds”.

B1: Cdc37 (protein, UniProt Q16543 1-378)
chain: MVDYSVWDHIEVSDDEDETHPNIDTASLFRWRHQARVERMEQFQKEKEELDRGCRECKRKVAECQRKLKELEVAEGGKAELERLQAEAQQLRKEERSWEQKLEEMRKKEKSMPWNVDTLSKDGFSKSMVNTKPEKTEEDSEEVREQKHKTFVEKYEKQIKHFGMLRRWDDSQKYLSDNVHLVCEETANYLVIWCIDLEVEEKCALMEQVAHQTIVMQFILELAKSLKVDPRACFRQFFTKIKTADRQYMEGFNDELEAFKERVRGRAKLRIEKAMKEYEEEERKKRLGPGGLDPVEVYESLPEELQKCFDVKDVQMLQDAISKMDPTDAKYHMQRCIDSGLWVPNSKASEAKEGEEAGPGDPLLEAVPKTGDEKDVSV
For the molecule B1, the binding entry in assay [3] and in assay [1] was “binds” throughout.
